Earlier results in patent US12173291B2, “Unnatural base pair compositions and methods of use” (THE SCRIPPS RESEARCH INSTITUTE, priority 2017, dated 2024).

Tested on: E. coli
Details: actively growing cultures of E. coli; cited from earlier work

## COc1cc2ccccc2cc1[C@H]1C[C@H](O)[C@@H](COP(=O)(O)OP(=O)(O)OP(=O)(O)O)O1 [dNaMTP, triphosphate of dNaM]
  Extracellular degradation to di- and mono-phosphate and nucleoside species: degrade

## O=P(O)(O)OP(=O)(O)OP(=O)(O)OC[C@H]1O[C@@H](n2ccc3ccsc3c2=S)C[C@@H]1O [dTPT3TP]
  Extracellular degradation to di- and mono-phosphate and nucleoside species: degrade
